From paper PMC10612308
No constants are given. Whether binding was seen depends on the method and setting. Binding seen in cells or lysates may run through a third protein. Some results given as binding are weak or reduced against the parent protein; the word gives no strength.

Amino acid sequences for entries named in this document (tags omitted).
UniProt Q9BVK8: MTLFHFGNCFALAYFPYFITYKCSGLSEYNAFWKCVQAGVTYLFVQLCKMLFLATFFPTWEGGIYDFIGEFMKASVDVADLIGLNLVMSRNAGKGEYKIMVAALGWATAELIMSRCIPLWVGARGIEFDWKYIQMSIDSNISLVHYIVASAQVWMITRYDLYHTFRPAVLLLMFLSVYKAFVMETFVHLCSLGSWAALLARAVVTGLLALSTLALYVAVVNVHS
UniProt P52630: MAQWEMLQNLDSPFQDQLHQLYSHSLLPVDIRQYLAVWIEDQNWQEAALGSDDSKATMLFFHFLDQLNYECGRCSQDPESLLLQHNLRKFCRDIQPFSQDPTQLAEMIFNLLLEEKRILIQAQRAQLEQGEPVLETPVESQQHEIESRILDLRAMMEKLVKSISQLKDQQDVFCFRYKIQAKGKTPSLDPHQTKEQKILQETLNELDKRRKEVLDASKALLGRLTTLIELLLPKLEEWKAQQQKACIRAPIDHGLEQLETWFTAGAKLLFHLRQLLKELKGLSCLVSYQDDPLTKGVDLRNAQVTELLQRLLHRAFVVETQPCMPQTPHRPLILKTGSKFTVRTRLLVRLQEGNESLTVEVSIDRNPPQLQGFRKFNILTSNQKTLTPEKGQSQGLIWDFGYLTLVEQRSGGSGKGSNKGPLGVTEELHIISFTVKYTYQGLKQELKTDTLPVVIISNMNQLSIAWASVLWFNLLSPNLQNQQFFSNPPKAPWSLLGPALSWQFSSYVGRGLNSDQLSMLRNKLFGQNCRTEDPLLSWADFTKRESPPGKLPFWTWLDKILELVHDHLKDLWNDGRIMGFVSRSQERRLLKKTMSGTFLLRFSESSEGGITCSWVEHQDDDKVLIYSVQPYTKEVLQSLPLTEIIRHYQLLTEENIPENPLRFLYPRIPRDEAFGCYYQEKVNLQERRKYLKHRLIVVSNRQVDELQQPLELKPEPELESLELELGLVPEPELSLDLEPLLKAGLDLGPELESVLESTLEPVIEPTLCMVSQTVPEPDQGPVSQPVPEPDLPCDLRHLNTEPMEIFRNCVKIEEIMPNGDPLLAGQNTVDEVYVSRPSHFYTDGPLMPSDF

Assays:
[1] = molecular target: Flag-TMEM147 (transmembrane protein 147) (human) (UniProt Q9BVK8); experiment: co-IP; HCC cell lysate in co-IP buffer, pre-cleared; antibody against Flag-TMEM147 or control IgG overnight at 4 °C, protein A/G beads, five washes; western blot for STAT2
[2] = molecular target: signal transducer and activator of transcription 2 (STAT2) (human (endogenous in Huh7 and HepG2)) (UniProt P52630); experiment: co-IP; HCC cell lysate in co-IP buffer, pre-cleared; antibody against STAT2 or control IgG overnight at 4 °C, protein A/G beads, five washes; western blot for TMEM147

binding [1] | binding [2] | Substance
binds |  | signal transducer and activator of transcription 2 (STAT2) (from UniProt P52630 1-851)
 | binds | Flag-TMEM147 (transmembrane protein 147) (from UniProt Q9BVK8 1-224)
